The results in this text go back to paper PMC12180984.

The chains behind the UniProt entries cited, without tags or fusion partners. Where a name states a change or a piece, a line headed by the entry shows the natural chain unless it says otherwise.
UniProt Q08857: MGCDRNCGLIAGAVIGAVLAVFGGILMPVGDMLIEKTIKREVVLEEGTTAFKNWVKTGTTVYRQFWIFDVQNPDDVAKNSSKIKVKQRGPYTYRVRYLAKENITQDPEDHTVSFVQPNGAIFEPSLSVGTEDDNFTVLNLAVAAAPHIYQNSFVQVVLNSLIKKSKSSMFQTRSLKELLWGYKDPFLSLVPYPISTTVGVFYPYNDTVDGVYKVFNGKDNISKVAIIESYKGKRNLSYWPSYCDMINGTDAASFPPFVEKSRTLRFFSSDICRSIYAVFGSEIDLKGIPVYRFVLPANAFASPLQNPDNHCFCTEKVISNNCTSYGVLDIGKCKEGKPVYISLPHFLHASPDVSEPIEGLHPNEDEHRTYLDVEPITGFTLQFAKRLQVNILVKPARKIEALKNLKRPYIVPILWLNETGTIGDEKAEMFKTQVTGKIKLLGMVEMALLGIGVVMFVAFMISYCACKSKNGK

Results are given in words; binding and its absence hold for the method and conditions named. A result given as binding can be weak or reduced; the word gives no strength. Where a sequence is shown, tags or fusion partners need not be part of it.

This assay addresses Glutathione S-transferase (GST)-fused CD36 protein (UniProt Q08857). Description: pull-down; purified GST-CD36 on GST resin incubated with purified HA-ASM (Flag-ASM in the methods) for 12 h at 4 C in 50 mM Tris-HCl, 200 mM NaCl, 1 mM EDTA, 1% NP-40, 1 mM DTT, 10 mM MgCl2, pH 8.0; immunoblot; both purified. Background: In western blotting, separated proteins are transferred to a membrane and probed.

B1: HA-ASM, recombinant ASMase made in BL21 cells (enzyme, UniProt Q04519 45-627)
chain: LFDSTVLWVPARAYPLPSEGHSVKFSAIAPPLQSAFGWQNLTCPACKVLFTALNHGLKKEPNVARVGSVAIKICKMLNIAPLDVCQSAVHLFEDDVVEVWTRSVLSPSEACGLLLGSSCGHWDIFSTWNISLPSVPKPPPKPPSPPAPGAPVSRVLFLTDLHWDHEYLEGTDPYCADPLCCRRGSGWPPNSQKGAGFWGEYSKCDLPLRTLESLLKGLGPAGPFEMVYWTGDIPAHDVWQQSRQDQLRALTTITDLVRKFLGPVPVYPAVGNHESTPVNGFPPPFIKGNQSSQWLYEAMAKAWEPWLPADALHTLRIGGFYALTPRPGLRLISLNMNFCSRENFWLLINSTDPAGQLQWLVEELQAAENRGDKVHIIGHIPPGHCLKSWSWNYYKIIARYENTLAGQFFGHTHVDEFEIFYDEETLSRPLAVAFLAPSATTFINLNPGYRVYQIDGNYPGSSHVVLDHETYILNLTQANAAGGTPSWKRLYRARETYGLPDAMPASWHNLVYRMRDDEQLFQTFWFLYHKGHPPSEPCGTPCRLATLCAQLSARADSPALCRHLMPNGSLPDANRLWSRPLLC
Take B1: the binding result is reported as “binds”.
